Results as given in PubChem BioAssay AID2685 (National Center for Advancing Translational Sciences (NCATS), 2010).
The list shows a part of the results. The main result of the screen is listed elsewhere. These columns were measured beside it and carry no call. Compounds called inactive in the main read-out are mostly missing here. The note in brackets gives the kind of curve behind each potency; many fits are weak.

Assay: qHTS Assay for Lipid Storage Modulators in Drosophila S3 Cells;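 on cell number change: cells counted by Cell Tracker Red CMTPX staining in the red channel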
Details: BODIPY lipid droplet fluorescence, 18-24 h; for cell number change: measured here: cell count max response, cells fed with added oleic acid
Method in brief: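 Laser-scanning cytometry quantifies lipid droplet accumulation (500–530 nm total intensity; droplet/cell object ratio) in oleic acid-fed (400 uM added) Drosophila S3 cells treated with a concentration series. 20 uM Triacsin C defined 100% inhibition.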

[1] = measured here: lipid fluorescence (Fed channel) AC50, cells fed with added oleic acid
[2] = measured here: cell number channel AC50, cells fed with added oleic acid

| Structure (SMILES) | cell number change | AC50 [1] | AC50 [2] |
| --- | --- | --- | --- |
| O=C(NCC1(c2ccccc2)CCCC1)c1ccco1 | 14.2% | 29.1 µM [rising, single point] |  |
| COc1ccc(OC)c(N(C(=O)c2ccco2)C(C(=O)NC2CCCC2)c2cc(OC)c(OC)c(OC)c2)c1 (centres undefined) | -1.25% |  |  |
| CCOC(=O)C1CCN(C(=S)NC2CCCC2)CC1 | 11.3% |  | 0.92 µM [falling, full curve, poor fit] |
| FC(F)(F)c1ccc(Cl)c(NC(=S)N/N=C/c2ccccc2C(F)(F)F)c1 | 1.1% | 1.16 µM [rising, full curve, poor fit] |  |
| CCOC(=O)CC(NS(=O)(=O)c1ccc2[nH]cc(C(=O)O)c(=O)c2c1)c1ccc(OCC)c(OC)c1 (centres undefined) | 10% |  |  |
| Cn1nc(C(=O)Nc2cccc(S(=O)(=O)N3CCCC3)c2)c2ccccc2c1=O | -12.4% | 0.326 µM [rising, partial curve, poor fit] |  |
| COc1ccc(N2C(=O)C(CC(=O)Nc3ccc(F)cc3)N(CCc3cccs3)C2=O)cc1 (centres undefined) | 23.3% | 29.1 µM [rising, single point] |  |
| Cc1ccc(C(=O)CCC(=O)NN2C(=O)NC3(CCCCC3)C2=O)cc1 | -22.1% | 0.58 µM [falling, full curve] |  |
| Cc1noc(C)c1C(=O)N1CCC(CO)(Cc2ccccc2)CC1 | -22.3% | 16.4 µM [falling, partial curve, poor fit] |  |
| CC1CCCN(S(=O)(=O)c2ccc(NC(=O)Cn3nnc(-c4ccccc4F)n3)cc2)C1 (centres undefined) | -13.3% | 32.6 µM [falling, single point] |  |
| CN(C(=O)COC(=O)C1CCN(S(=O)(=O)c2ccc3c(c2)OCCO3)CC1)c1ccccc1 | 25% | 29.1 µM [falling, partial curve, poor fit] |  |
| COc1ccc(/C=C/C(=O)N2CCC(c3ccccc3)C2)cc1 (centres undefined) | 31.2% | 2.31 µM [rising, single point] | 8.2 µM [rising, partial curve] |
| Cn1nccc1C(=O)Nc1cccc(S(=O)(=O)N2CCOCC2)c1 | -7.04% | 3.26 µM [falling, single point] |  |
| CC(=O)N(C)Cc1ccc(C(=O)CCl)cc1 | 10.3% |  | 3.66 µM [rising, single point] |
| O=C(CN(C(=O)c1csnn1)c1ccccc1)NCc1ccc2c(c1)OCO2 | 13.2% |  | 1.46 µM [rising, full curve] |
| CCCCN(C(=O)C1CC1)C1CCS(=O)(=O)C1 (centres undefined) |  |  | 2.91 µM [falling, single point] |
| CCC(C)NC(=O)C1CCN(S(=O)(=O)c2ccc(-n3cnnn3)cc2)CC1 (centres undefined) | 15.8% | 0.891 µM [rising, partial curve] |  |
| Cn1c(=O)c2c(ncn2CC(=O)N2CCN(S(=O)(=O)c3ccc(F)cc3)CC2)n(C)c1=O | 0.871% |  |  |
| COc1cc(C(=O)Nc2cccc(-n3cnnn3)c2)cc(OC)c1OC | -53.3% | 2.59 µM [rising, partial curve] |  |
| CC1CCN(C(=O)c2cc3c(ccc4ccccc43)o2)CC1 |  | 0.58 µM [falling, single point] |  |
| Cc1cc2cc(CNC(=O)c3cc4ccccc4o3)ccc2n1C | 20.6% | 0.731 µM [rising, single point] |  |

| Structure (SMILES) | cell number change | AC50 [1] | AC50 [2] |
| --- | --- | --- | --- |
| COc1ccccc1C#Cc1ccc2c(=O)c3ccccc3n(C)c2c1 | -18% | 6.51 µM [falling, single point] |  |
| N#CC1=C(N)C(C#N)(C#N)[C@H](c2ccsc2)[C@H]2COCC=C12 |  | 0.411 µM [falling, single point] |  |
| COc1ccc(-c2ccc(SCC(=O)N3CCOCC3)nn2)cc1 | -17.9% |  |  |
| C/C(=N\NC(=O)c1ccc(Cl)c(S(=O)(=O)Nc2ccccc2Cl)c1)c1ccncc1 | -2.1% | 0.0731 µM [rising, full curve, poor fit] | 3.26 µM [rising, single point] |
| N#Cc1ccccc1NC(=O)CN(Cc1ccccc1)Cc1ccccc1 | -3.42% |  |  |
| COCCN(C(=O)c1cc(S(=O)(=O)N2CCCCC2)ccc1Cl)c1c(N)n(CC(C)C)c(=O)[nH]c1=O | -17.4% | 29.1 µM [rising, single point] |  |
| COc1cc(NC(=O)c2c(F)c(F)c(OC)c(F)c2F)ccc1NC(=O)c1cccs1 | -22.9% |  |  |
| COc1cccc(CNC(=O)C2CC(=O)N(C3CCCCCCC3)C2)c1 (centres undefined) | 7.91% | 6.51 µM [rising, single point] |  |
| CCCCN(C(=O)c1ccc(C)cc1)c1c(N)n(CCC)c(=O)[nH]c1=O | 13.7% |  |  |
| O=C(CCC(=O)OCC(=O)c1ccc(-c2ccccc2)cc1)Nc1cccc2cccnc12 | -3.07% |  |  |
| O=C(COC(=O)c1ccc2c(c1)OCO2)Nc1ccccc1Cl | -5.51% | 29.1 µM [falling, single point] |  |
| COc1ccccc1CNC(=O)c1cc2c(=O)[nH]c3ccccc3c2n1C | -35.3% | 16.4 µM [falling, single point] | 0.00651 µM [falling, full curve, poor fit] |
| Cc1ccc2c(CC(=O)N3CCc4ccccc43)coc2c1 | 26.7% |  | 0.206 µM [rising, full curve, poor fit] |
| CC(C)c1ccccc1NC(=S)NC1CCCCC1 | 17.9% | 5.01 µM [rising, full curve, poor fit] |  |
| CCCN(CC(=O)Nc1ccc(F)c(F)c1F)C(=O)c1ccc(N2CCCC2=O)cc1 | 38.4% |  | 16.4 µM [rising, partial curve, poor fit] |
| Cc1ccc(S(=O)(=O)NC2CC(C)(C)NC(C)(C)C2)cc1 | 7.43% | 25.9 µM [rising, partial curve] |  |
| COc1ccc(OC)c(NC(=O)CSc2nc3c(c(=O)n(C)c(=O)n3C)n2C)c1 | 26% | 0.206 µM [rising, full curve] |  |
| Cc1ccc(NC(=O)Cn2c(CCC(=O)O)ccc2-c2cccs2)cc1Cl | 5.2% |  | 0.146 µM [falling, full curve, poor fit] |
| CC(=O)N1CC=C2C(C#N)=C(N)C(C#N)(C#N)C(CCc3ccccc3)C2C1 (centres undefined) | 1.51% |  |  |
| COc1ccc(OC)c2c1sc(=NC(=O)c1ccco1)n2C | -12.2% | 0.116 µM [falling, full curve, poor fit] |  |
| Cc1nc([N+](=O)[O-])c(Br)n1CC(=O)c1ccc(Cl)cc1 |  | 0.82 µM [rising, full curve, poor fit] | 1.64 µM [rising, partial curve, poor fit] |

| Structure (SMILES) | cell number change | AC50 [1] | AC50 [2] |
| --- | --- | --- | --- |
| O=C(Nc1nnc(C2CC2)s1)C1CC(=O)N(c2ccc3c(c2)OCCO3)C1 (centres undefined) | 14.1% |  |  |
| COc1ccc(/C=C/C(=O)OCC(=O)Nc2cc(C(N)=O)cc(C(N)=O)c2)cc1 | 19.7% |  |  |
| O=C(CCNC(=O)c1ccc(Br)cc1)NCC1CCCO1 (centres undefined) | 1.95% | 29.1 µM [falling, partial curve] |  |
| O=C(CCN1C(=O)/C(=C/c2ccc(F)cc2)SC1=S)NNC(=O)c1cccnc1 | 1.23% | 6.51 µM [rising, single point] |  |
| CCOC(=O)CSc1nc(N)c2c3c(sc2n1)CCCC3 | 18.1% | 18.4 µM [falling, partial curve] | 0.00461 µM [rising, full curve, poor fit] |
| COc1ccc(N(CC(=O)NCc2ccc(Cl)cc2)S(=O)(=O)c2c(C)nn(C)c2C)cc1 | -10.3% |  | 6.51 µM [falling, partial curve, poor fit] |
| Cc1nc(COC(=O)c2cc(O)c3ccccc3c2O)cs1 | -11% | 1.03 µM [falling, single point] | 0.58 µM [falling, single point] |
| CN(C)CCNc1nc(-c2ccccc2)nnc1C(F)(F)F | 23.7% | 8.2 µM [rising, partial curve, poor fit] |  |
| O=[N+]([O-])c1ccc(/C=N/Nc2ccc3ccccc3c2)o1 | 41.2% | 11.6 µM [falling, partial curve] | 4.61 µM [rising, partial curve] |
| Cc1oc2c(c1C(=O)Nc1cccc(C(=O)O)c1)CCCC2 | -27.3% | 0.206 µM [falling, full curve, poor fit] | 4.11 µM [falling, full curve, poor fit] |
| CCOC(=O)c1c(C)c(C(=O)Nc2cc(OC)ccc2OC)c(C)n1CC | -18.1% | 9.2 µM [rising, partial curve, poor fit] |  |
| O=C(CCNC(=O)c1ccc(Br)cc1)NCCCc1ccccc1 | 93.6% |  | 16.4 µM [rising, partial curve] |
| FC(F)(F)c1nc(Oc2ccccc2)c2ccccc2n1 |  |  | 0.411 µM [falling, single point] |
| O=C(CSc1ncn[nH]1)Nc1ccnc2ccccc12 | 4.79% |  |  |
| Cc1nn2c(=O)cc(CSCC(=O)Nc3ccccc3F)nc2s1 | -2.47% | 29.1 µM [rising, single point] |  |
| COc1ccc(C(=O)OCC(=O)NC(=O)NC2CCCC2)c(OC)c1 | 8.21% | 6.51 µM [rising, partial curve] | 6.51 µM [rising, partial curve, poor fit] |
| CCN(CC(=O)Nc1ccccc1C(=O)NC1CC1)Cc1cccs1 | 25% |  | 6.51 µM [rising, single point] |
| O=C(CN(Cc1ccccc1)S(=O)(=O)c1ccccc1)N/N=C/c1ccccc1[N+](=O)[O-] | -26.8% | 0.411 µM [rising, partial curve, poor fit] |  |
| COCCNC(=O)c1cc2c(-c3ccc(Cl)cc3)nn(C)c2s1 |  | 1.64 µM [rising, partial curve] | 2.59 µM [rising, partial curve] |

12 entries already listed, sorted by heavy-atom count, largest number first.

| Structure (SMILES) | cell number change | AC50 [1] | AC50 [2] |
| --- | --- | --- | --- |
| COc1ccc(N2C(=O)C(CC(=O)Nc3ccc(F)cc3)N(CCc3cccs3)C2=O)cc1 (centres undefined) | 23.3% | 29.1 µM [rising, single point] |  |
| Cn1c(=O)c2c(ncn2CC(=O)N2CCN(S(=O)(=O)c3ccc(F)cc3)CC2)n(C)c1=O | 0.871% |  |  |
| C/C(=N\NC(=O)c1ccc(Cl)c(S(=O)(=O)Nc2ccccc2Cl)c1)c1ccncc1 | -2.1% | 0.0731 µM [rising, full curve, poor fit] | 3.26 µM [rising, single point] |
| O=C(CCN1C(=O)/C(=C/c2ccc(F)cc2)SC1=S)NNC(=O)c1cccnc1 | 1.23% | 6.51 µM [rising, single point] |  |
| O=C(Nc1nnc(C2CC2)s1)C1CC(=O)N(c2ccc3c(c2)OCCO3)C1 (centres undefined) | 14.1% |  |  |
| COc1ccc(C(=O)OCC(=O)NC(=O)NC2CCCC2)c(OC)c1 | 8.21% | 6.51 µM [rising, partial curve] | 6.51 µM [rising, partial curve, poor fit] |
| Cn1nccc1C(=O)Nc1cccc(S(=O)(=O)N2CCOCC2)c1 | -7.04% | 3.26 µM [falling, single point] |  |
| COCCNC(=O)c1cc2c(-c3ccc(Cl)cc3)nn(C)c2s1 |  | 1.64 µM [rising, partial curve] | 2.59 µM [rising, partial curve] |
| Cc1ccc2c(CC(=O)N3CCc4ccccc43)coc2c1 | 26.7% |  | 0.206 µM [rising, full curve, poor fit] |
| O=[N+]([O-])c1ccc(/C=N/Nc2ccc3ccccc3c2)o1 | 41.2% | 11.6 µM [falling, partial curve] | 4.61 µM [rising, partial curve] |
| CCCCN(C(=O)C1CC1)C1CCS(=O)(=O)C1 (centres undefined) |  |  | 2.91 µM [falling, single point] |
| CC(=O)N(C)Cc1ccc(C(=O)CCl)cc1 | 10.3% |  | 3.66 µM [rising, single point] |
